## Primary screen of a compound library

The chains behind the UniProt entries cited, without tags or fusion partners. Residues count along the entry.
UniProt P9WFT3, whole entry: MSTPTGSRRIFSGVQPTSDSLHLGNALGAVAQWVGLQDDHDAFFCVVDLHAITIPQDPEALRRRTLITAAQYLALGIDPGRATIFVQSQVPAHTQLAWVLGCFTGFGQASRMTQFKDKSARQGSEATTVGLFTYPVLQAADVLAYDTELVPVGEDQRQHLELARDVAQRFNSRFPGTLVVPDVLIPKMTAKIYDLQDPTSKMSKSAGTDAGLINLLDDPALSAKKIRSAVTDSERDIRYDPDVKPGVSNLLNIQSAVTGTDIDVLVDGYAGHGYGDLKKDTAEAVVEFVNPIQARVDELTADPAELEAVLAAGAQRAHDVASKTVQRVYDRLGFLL
UniProt P9WPC5, whole entry: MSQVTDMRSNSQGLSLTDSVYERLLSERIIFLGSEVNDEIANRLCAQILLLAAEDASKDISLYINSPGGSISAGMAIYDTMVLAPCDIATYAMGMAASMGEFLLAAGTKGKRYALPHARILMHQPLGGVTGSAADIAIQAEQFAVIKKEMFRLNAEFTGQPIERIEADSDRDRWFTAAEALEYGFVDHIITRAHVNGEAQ
UniProt P9WPC3, whole entry partner: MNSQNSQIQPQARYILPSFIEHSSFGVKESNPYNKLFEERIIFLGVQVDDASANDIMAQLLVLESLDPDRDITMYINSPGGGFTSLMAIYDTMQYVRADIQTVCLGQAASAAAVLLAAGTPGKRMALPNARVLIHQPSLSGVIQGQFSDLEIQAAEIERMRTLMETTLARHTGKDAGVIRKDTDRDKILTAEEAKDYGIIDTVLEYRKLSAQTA
UniProt Q8IDJ8, 1-583: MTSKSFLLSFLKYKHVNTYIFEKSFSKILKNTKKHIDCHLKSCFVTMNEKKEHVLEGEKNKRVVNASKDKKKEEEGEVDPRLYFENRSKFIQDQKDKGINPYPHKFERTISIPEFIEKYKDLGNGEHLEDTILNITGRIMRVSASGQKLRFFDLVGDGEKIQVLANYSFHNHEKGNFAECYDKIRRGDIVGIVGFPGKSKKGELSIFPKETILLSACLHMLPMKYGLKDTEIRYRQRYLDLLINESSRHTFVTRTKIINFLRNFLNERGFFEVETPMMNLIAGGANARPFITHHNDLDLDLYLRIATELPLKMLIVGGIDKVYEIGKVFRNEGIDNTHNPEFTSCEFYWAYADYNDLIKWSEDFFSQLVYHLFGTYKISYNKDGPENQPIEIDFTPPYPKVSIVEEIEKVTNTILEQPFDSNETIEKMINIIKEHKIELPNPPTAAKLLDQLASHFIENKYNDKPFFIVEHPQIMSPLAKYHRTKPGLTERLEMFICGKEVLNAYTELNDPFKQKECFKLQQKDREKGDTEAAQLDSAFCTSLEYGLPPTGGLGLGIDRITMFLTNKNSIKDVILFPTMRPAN
UniProt P9WNZ1, whole entry: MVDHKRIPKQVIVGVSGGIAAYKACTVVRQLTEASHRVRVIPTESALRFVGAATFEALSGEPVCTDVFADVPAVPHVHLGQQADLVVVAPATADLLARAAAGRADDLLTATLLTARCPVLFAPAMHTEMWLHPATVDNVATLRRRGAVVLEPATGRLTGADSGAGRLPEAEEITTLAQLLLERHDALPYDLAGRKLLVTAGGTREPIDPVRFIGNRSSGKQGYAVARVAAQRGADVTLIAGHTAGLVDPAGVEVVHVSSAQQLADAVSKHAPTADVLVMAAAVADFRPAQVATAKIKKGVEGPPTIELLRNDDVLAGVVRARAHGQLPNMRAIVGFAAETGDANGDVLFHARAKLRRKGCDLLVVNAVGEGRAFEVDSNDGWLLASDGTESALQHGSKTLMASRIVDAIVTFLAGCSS

The values are deposited in ChEMBL (CHEMBL3988442, “University of Dundee, Small-Polar-MMV Screening Library” (2021)).

A: 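Enzyme assay of tryptophanyl-tRNA synthetase; the read-out is not stated. Target: Tryptophan-tRNA ligase, Mycobacterium tuberculosis (UniProt P9WFT3). Tested at 10 µM. Higher most likely means stronger inhibition; the record gives no direction and few retests gave an IC50. Of about 65,000 compounds tested this way, about 64 (0.098%) reached 50% or more in at least one test.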
B: 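ClpP1P2, Mycobacterium tuberculosis (UniProt P9WPC5 and UniProt P9WPC3). Protease assay of ClpP1P2, read by the AMC dye that it sets free. Tested at 50 µM. Direction is inferred from only a few compounds that gave an IC50; most scored high, so higher reads as stronger inhibition. Most other retested compounds had strongly negative values. About 69,000 compounds were tested under these conditions; 0.015% (about 10) showed 50% or more at least once.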
C: 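Cell assay of Leishmania donovani living inside macrophages; the read-out is not stated. Compounds at 30 µM. Direction is inferred from retests: higher values go with stronger inhibition. Size under these conditions: about 69,000 compounds, about 1,000 of them at 50% or above in at least one test.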
D: 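Enzyme assay of the cytosolic lysyl-tRNA synthetase in 384-well plates, read by luminescence. Target: Lysine-tRNA ligase, Plasmodium falciparum 3D7 (UniProt Q8IDJ8). Concentration: 30 µM. Higher reads as stronger inhibition, judged from the few compounds that gave an IC50. Size under these conditions: about 69,000 compounds, about 49 of them at 50% or above in at least one test.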
E: 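Enzyme assay of CoaBC with a phosphate dye (Biomol Green) read at 650 nm. Target: Coenzyme A biosynthesis protein CoaBC, Mycobacterium tuberculosis (UniProt P9WNZ1). Compounds at 30 µM. Higher reads as stronger inhibition, judged from the few compounds that gave an IC50. Most strong results did not repeat in a second test. Of about 67,000 compounds tested this way, about 40 (0.06%) reached 50% or more in at least one test.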

Results are given as percent effect. The controls that fix the scale are not given in the record; negative values are as filed. Compounds were drawn at random from those tested, without regard to their results. Two or more numbers in one place are separate tests of the same structure; such repeats can differ widely. A dash means the value is not listed here; it may have been measured.

| SMILES | A | B | C | D | E |
|---|---|---|---|---|---|
| `CC(C)NC(=O)N1CCC(c2nnc3n2CCNC3)CC1` | 18.76 | -33.45 | -10 | 18.02 | 5.789 |
| `CN1C(=O)CCCC12CCCN(C(=O)c1ccc3c(c1)OCO3)C2` (stereo not given) | -3.483 | 0.1977 | 5.249 | 3.076 | 4.235 |
| `Cc1cc(=O)c(C(=O)N2CCCCC2c2ccc(F)cc2)c[nH]1` (stereo not given) | -4.77 | -1.314 | 7.21 | 4.627 | 2.828 |
| `Cn1cc(CN2CCOCC3(C2)CN(c2ccccc2)C(=O)CO3)cn1.O=C(O)C(F)(F)F` (stereo not given) | - | - | -22.45 | - | - |
| `Cc1nc(-c2ccnc(N3CCNCC3)n2)no1.Cl.Cl` | - | - | 23.82 | - | - |
| `CC(C)n1nnc(CC(=O)NCC2(c3cccc(F)c3)CCCC2)n1` | 9.675 | -21.38 | 7.408 | -1.508 | 0.7884 |
| `CCOCc1ncn2c1CN(S(=O)(=O)c1cccc(C)c1)CC2` | -4.257 | -11.97 | -12.24 | 3.195 | 3.426 |
| `N[C@@H]1CCN(Cc2cc(-c3ccccc3OC(F)(F)F)no2)C[C@H]1O` | -3.127 | -3.765 | 12.53 | -3.118 | -0.6329 |
| `COc1ccccc1CN(Cc1nc(CC(C)C)no1)C1CC1` | -0.306 | -12.43 | 39.58 | 0.8542 | 8.908 |
| `[H][C@]12CC[C@@]([H])(C1)N(Cc1cccc(OC)c1OCCN1CCOCC1)C2` | - | - | 17.64 | - | - |
| `Cc1cc(=O)n2ncnc2n1CC(O)c1ccc(F)cc1F` (stereo not given) | 3.762 | -21.22 | 6.471 | 5.554 | 2.683 |
| `O=C(COCc1ccccc1)Nc1ccccn1` | -2.709 | -24.51 | 14.05 | 0.9846 | 1.951 |
| `O=C(O)C(F)(F)F.[H][C@@]12CCN(Cc3ccoc3)[C@]1([H])CC[C@H](C(=O)Nc1cnccn1)O2` | - | - | -13.67 | - | - |
| `CC1CCc2nc(NC(=O)CN(C)C(=O)c3ccco3)sc2C1` (stereo not given) | 1.564 | 3.193 | -5.106 | -5.254 | 6.367 |
| `Cc1ccc(C(=O)N2CCC3(CC2)COC(COc2cccnc2)C3)o1` (stereo not given) | 2.441 | 0.509 | - | 1.364 | 3.782 |
| `COc1cc2nc(NCCN3CCNC3=O)cc(C)c2cc1OC` | -1.127 | -47.82 | 8.71 | 7.019 | 5.844 |
| `Cc1cnn(CCNc2cnc3ccccc3n2)c1` | 0.6461 | -319.3 | 20.3 | -0.2142 | 7.514 |
| `O=C(O)C(F)(F)F.[H][C@]12CC[C@@]3(N=C(c4ccccc4)NC3=O)[C@@]1([H])CN(CC1CC1)C2` | - | - | 19.04 | - | - |
| `CC(C)Oc1cccc(F)c1C(C(=O)O)N(C)Cc1ccon1` (stereo not given) | 1.722 | -6.956 | 20.19 | 2.23 | 0.6098 |
| `COc1cn(CC(=O)N2CCN(c3ccc(F)cc3)CC2)c(C)cc1=O` | -0.8136 | -7.18 | -14.37 | 4.485 | -1.139 |
| `Cc1cccc(-c2ncc(CNC(C)CO)cn2)c1` (stereo not given) | -2.037 | 3.247 | 10.43 | 2.311 | 1.463 |
| `Cc1ccsc1C(=O)N1C[C@@H]2CN(Cc3ccoc3)CCO[C@@H]2C1` | 4.795 | 1.946 | - | 2.876 | 3.085 |
| `Cc1ccc(C)c(CSc2nnc(C(N)C(C)C)o2)c1` (stereo not given) | -4.502 | -5.77 | - | -3.51 | -3.281 |
| `Cc1cnn(CCNCc2csc(-c3ccco3)n2)c1` | 7.219 | -32.64 | 14.17 | -3.776 | 5.196 |
| `CCOc1ccc(C(F)(F)F)cc1NC(=O)N1CCC(C(N)=O)CC1` | 0.9855 | -15.86 | -0.8626 | 10.29 | 0.2336 |
| `CS(=O)(=O)N1CCO[C@@H]2CN(C(=O)C3CCOC3)CC[C@@H]2C1` (stereo not given in full) | - | 3.113 | - | 6.762 | 0.495 |
| `CCOc1ccc(CNCc2cccnc2N(C)C)cc1` | 6.109 | -5.416 | 5.601 | 3.985 | 2.309 |
| `Cc1c(C(=O)NCCC(=O)N2CCOCC2)sc2ccc(F)cc12` | 2.082 | 11.86 | 4.489 | 2.81 | 6.821 |
| `COC(=O)c1ccc2c(-c3ccnc(NCCO)n3)c[nH]c2c1` | - | 4.1 | 18.44 & 4.181 | 2.605 | 0.8434 |
| `Cn1cc(CN2CCCC23CCN(C(=O)c2ccccn2)CC3)cn1.O=C(O)C(F)(F)F` | - | - | -2.86 | - | - |
| `Fc1cnc(N2CCCn3cnc(COc4cccnc4)c3C2)nc1.O=C(O)C(F)(F)F` | - | - | 38.8 | - | - |
| `O=C(O)C(F)(F)F.[H][C@@]12COC[C@]1([H])[C@H](NC(=O)C1CCC1)CN2Cc1cccs1` | - | - | -3.55 & 4.82 | - | - |
| `CCOC(C)c1nc(Cn2cc(C(=O)NC)ccc2=O)cs1` (stereo not given) | -4.231 | 6.307 | 8.919 | -2.254 | - |
| `CNc1nc2c(c(C(=O)N3CCCC3)n1)CN(C(=O)C1CCCC1)CC2` | 2.768 | 4.137 | 22.39 | -1.251 | 4.362 |
| `CC(C)(C)c1nccc(N2CCC(OCCN3CCCCC3)C2)n1` (stereo not given) | -7.603 | -7.095 | 36.05 | 5.114 | -2.4 |
| `O=C(O)C(F)(F)F.c1cnc(NCc2nnn3c2CN(Cc2ccsc2)CCC3)nc1` | - | - | -35.49 | - | - |
| `COc1ccc(C(N)=O)cc1NCc1ncc(C(C)(C)C)o1` | -4.627 | -3.342 | 19.94 | -4.206 | 0.3841 |
| `CC(C)(C)c1cnc(CN2CCC(CN3CCOCC3)CC2)o1` | 5.318 | 0.3123 | 0.5714 | -1.008 | 9.728 |
| `Cc1cc2c(=O)n3c(nc2s1)CCN(Cc1cnc(C)n1C)CC3.Cl` | - | - | -14.29 | - | - |
| `Cc1ncccc1Oc1cncc(C2CCCN2Cc2cncn2C)n1` (stereo not given) | -9.098 | -12.95 | 19.44 | 1.838 | -0.3708 |
| `CC[C@H]1N(CC2CCC2)CCC[C@]12CCC(=O)N2Cc1ccncc1` | -6.977 | -13.27 | - | 2.345 | 4.762 |
| `[H][C@]12CC[C@]([H])(CN(Cc3cccc(C)n3)C1)N(Cc1c(C)noc1C)C2=O` | - | - | 17.92 | - | - |
| `Cc1cnc(N2C[C@H]3CCCC(N(C)Cc4ccccn4)[C@H]3C2)nc1` (stereo not given in full) | -0.8994 | 6.266 | - | 7.369 | 3.941 |
| `Cc1cc(C)c(CNC(=O)NC2COc3ccccc3C2)c(=O)[nH]1` (stereo not given) | -2.279 | -2.117 | -2.517 | 10.7 | 5.837 |
| `Cc1cnn(CC2CN(c3ncnc4c3CCC4)CCO2)c1` (stereo not given) | 2.834 | -4.151 | 20.73 | 5.03 | 9.032 |
| `O=C1N(C2CCCCC2)CCCC12CCN(S(=O)(=O)c1cccnc1)C2` (stereo not given) | -1.31 | 6.54 | 18 | 1.997 | 6.865 |
| `c1cncc(CN2CCOC(c3ncn4c(C5CC5)cccc34)C2)c1` (stereo not given) | 2.05 | -1.606 | - | 8.715 | - |
| `COCC(=O)N1CCC2(CCCN(Cc3cnn(C)c3)C2)C1` (stereo not given) | -5.679 | -11.71 | 28.32 | -2.926 | 3.299 |
| `CCCN1CCN(C(=O)c2scnc2C)CC1` | -4.131 | -4.906 | 22.45 | 0.1045 | -5.263 |

Once more, the final 5:

Cc1cnn(CC2CN(c3ncnc4c3CCC4)CCO2)c1 (stereo not given) read A: 2.834%; B: -4.151%; C: 20.73%; D: 5.03%; E: 9.032%.
O=C1N(C2CCCCC2)CCCC12CCN(S(=O)(=O)c1cccnc1)C2 (stereo not given) read A: -1.31%; B: 6.54%; C: 18%; D: 1.997%; E: 6.865%.
c1cncc(CN2CCOC(c3ncn4c(C5CC5)cccc34)C2)c1 (stereo not given) read A: 2.05%; B: -1.606%; D: 8.715%.
COCC(=O)N1CCC2(CCCN(Cc3cnn(C)c3)C2)C1 (stereo not given) read A: -5.679%; B: -11.71%; C: 28.32%; D: -2.926%; E: 3.299%.
CCCN1CCN(C(=O)c2scnc2C)CC1 read A: -4.131%; B: -4.906%; C: 22.45%; D: 0.1045%; E: -5.263%.